Data as given in PubChem BioAssay AID1259271 (Sanger Institute, 2017)
Screen: 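Kinase siRNAs that make BYL719, cetuximab or trametinib kill more cells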 (follow-up of hits). System: RKO colorectal cancer cells. Knock-down reagent: single siRNA against human genes. Conditions: anchor drug added to each siRNA well, cetuximab 5 µg/ml, trametinib 10 nM or BYL719 1 µM, compared with DMSO vehicle; exposure length not given. Detection: 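Synergy score for each anchor drug (trametinib 10 nM, cetuximab 5 µg/ml, BYL719 1 µM, against DMSO) and survival versus control pool 2 (non-targeting), each a replicate mean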. Reading the numbers: synergy score with BYL719 and synergy score with cetuximab and synergy score with trametinib: higher = stronger synthetic lethality with the drug. Rule for the call: 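Called active if the synergy score passes 0.10 for one or more anchor drugs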. Calls: active = synergy with at least one drug; inactive = no synergy with any drug.
The deposit covers 160 reagents; below is a random part of them. Over the whole deposit, 124 (78%) were called active. 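Each row is one of four siRNAs per gene; gene-level confirmation, requiring two siRNAs in several cell lines, is not included.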 Reagents against one gene are numbered here. Not all columns of the deposit are shown. Not stated in the record: the amount of reagent, the time to read-out.

Against GUCY2D (GeneID 3000) #1, the values are synergy score with BYL719 = -0.0284; synergy score with cetuximab 0.122; synergy score with trametinib 0.151; active.
Depletion of GUCY2D (GeneID 3000) #2 gave: synergy score with BYL719 = 0.0831; synergy score with cetuximab 0.0926; synergy score with trametinib 0.15; active.
With knock-down of GUCY2D (GeneID 3000) #3 the results were synergy score with BYL719 = -0.215; synergy score with cetuximab -0.00298; synergy score with trametinib 0.161; active.
GUCY2D (GeneID 3000) #4 scored synergy score with BYL719 = -0.321; synergy score with cetuximab -0.00987; synergy score with trametinib -0.0709; inactive.

Targets above whose target name begins with G or g (4):
GUCY2D (GeneID 3000) #1 → synergy score with BYL719 = -0.0284; synergy score with cetuximab = 0.122; synergy score with trametinib = 0.151; activity call = active
GUCY2D (GeneID 3000) #2 → synergy score with BYL719 = 0.0831; synergy score with cetuximab = 0.0926; synergy score with trametinib = 0.15; activity call = active
GUCY2D (GeneID 3000) #3 → synergy score with BYL719 = -0.215; synergy score with cetuximab = -0.00298; synergy score with trametinib = 0.161; activity call = active
GUCY2D (GeneID 3000) #4 → synergy score with BYL719 = -0.321; synergy score with cetuximab = -0.00987; synergy score with trametinib = -0.0709; activity call = inactive

Additional entries follow:
Against BRAF (GeneID 673) #1, the values are synergy score with BYL719 = 0.3; synergy score with cetuximab 0.164; synergy score with trametinib 0.189; active.
After knock-down of BRAF (GeneID 673) #2, the record shows synergy score with BYL719 = 0.366; synergy score with cetuximab 0.159; synergy score with trametinib 0.324; active.
With knock-down of BRAF (GeneID 673) #3, the screen gave synergy score with BYL719 = 0.294; synergy score with cetuximab 0.205; synergy score with trametinib 0.283; active.
Knock-down of BRAF (GeneID 673) #4 came out at: synergy score with BYL719 = 0.408; synergy score with cetuximab 0.293; synergy score with trametinib 0.381; active.
After knock-down of GRK5 (GeneID 2869) #1, the screen gave synergy score with BYL719 = -0.0897; synergy score with cetuximab -0.0247; synergy score with trametinib 0.16; active.
GRK5 (GeneID 2869) #2 scored synergy score with BYL719 = -0.0312; synergy score with cetuximab 0.208; synergy score with trametinib 0.0637; active.
Knock-down of GRK5 (GeneID 2869) #3 came out at: synergy score with BYL719 = -0.0544; synergy score with cetuximab -0.00378; synergy score with trametinib 0.186; active.
Depletion of GRK5 (GeneID 2869) #4 gave: synergy score with BYL719 = -0.032; synergy score with cetuximab 0.122; synergy score with trametinib 0.223; active.
